{"source": "PubChem BioAssay AID1259405 (NCATS, 2018)", "screen": "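Mouse-designed siRNAs used to find CHO productivity engineering targets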 (primary screen)", "cell system": "Chinese hamster CHO-K1 ovary cells with stable secreted eGFP expression", "reagents": "single siRNA against mouse genes, 0.8 pmol siRNA per well (2 µl of 400 nM stock)", "time to read-out": "3 days", "measured": "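Per-well intracellular GFP measured by laser scanning cytometry, plus viability from ATP luminescence, each relative to plate median of non-targeting control wells, in %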", "scale": "GFP, % of control: higher = more GFP per well, higher productivity; viability (ATP), % of control: higher = more viable cells (more ATP)", "hit rule": "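a knock-down is called active if GFP reaches 120% or more of non-targeting control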", "note": "In all, the deposit lists about 50,000 reagents; shown is a random part of them. About 4,000 of them (8%) were called active. 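Mouse siRNA library applied to hamster cells; one well for each siRNA.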 The numbers tell different reagents against one gene apart."}
{"gene knocked down": "Tead2", "siRNA no.": 1, "GFP, % of control": 72.3, "viability (ATP), % of control": 81.6, "outcome": "inactive"}
{"gene knocked down": "Tead2", "siRNA no.": 2, "GFP, % of control": 27.3, "viability (ATP), % of control": 33.6, "outcome": "inactive"}
{"gene knocked down": "Tead2", "siRNA no.": 3, "GFP, % of control": 89.9, "viability (ATP), % of control": 99.1, "outcome": "inactive"}
{"gene knocked down": "Scfd2", "siRNA no.": 1, "GFP, % of control": 111, "viability (ATP), % of control": 113, "outcome": "inactive"}
{"gene knocked down": "Scfd2", "siRNA no.": 2, "GFP, % of control": 78.4, "viability (ATP), % of control": 68.8, "outcome": "inactive"}
{"gene knocked down": "Scfd2", "siRNA no.": 3, "GFP, % of control": 77.2, "viability (ATP), % of control": 89.3, "outcome": "inactive"}
{"gene knocked down": "Ift27", "siRNA no.": 1, "GFP, % of control": 78.2, "viability (ATP), % of control": 68.5, "outcome": "inactive"}
{"gene knocked down": "Ift27", "siRNA no.": 2, "GFP, % of control": 121, "viability (ATP), % of control": 114, "outcome": "active"}
{"gene knocked down": "Ift27", "siRNA no.": 3, "GFP, % of control": 80.1, "viability (ATP), % of control": 68.5, "outcome": "inactive"}
{"gene knocked down": "Pdc", "siRNA no.": 1, "GFP, % of control": 97.2, "viability (ATP), % of control": 131, "outcome": "inactive"}
{"gene knocked down": "Pdc", "siRNA no.": 2, "GFP, % of control": 87.7, "viability (ATP), % of control": 71.8, "outcome": "inactive"}
{"gene knocked down": "Fbxw13", "siRNA no.": 1, "GFP, % of control": 182, "viability (ATP), % of control": 122, "outcome": "active"}
{"gene knocked down": "Fbxw13", "siRNA no.": 2, "GFP, % of control": 43.6, "viability (ATP), % of control": 57.9, "outcome": "inactive"}
{"gene knocked down": "Fbxw13", "siRNA no.": 3, "GFP, % of control": 108, "viability (ATP), % of control": 78.6, "outcome": "inactive"}
{"gene knocked down": "Drc10", "siRNA no.": 1, "GFP, % of control": 64.6, "viability (ATP), % of control": 42.6, "outcome": "inactive"}
{"gene knocked down": "Drc10", "siRNA no.": 2, "GFP, % of control": 77.6, "viability (ATP), % of control": 85.3, "outcome": "inactive"}
{"gene knocked down": "Drc10", "siRNA no.": 3, "GFP, % of control": 112, "viability (ATP), % of control": 103, "outcome": "inactive"}
